# Data from article PMC5717138.
# T1: 2xFlag-Polη (DNA polymerase η, wild type) (human) (UniProt Q9Y253)
# T1 sequence: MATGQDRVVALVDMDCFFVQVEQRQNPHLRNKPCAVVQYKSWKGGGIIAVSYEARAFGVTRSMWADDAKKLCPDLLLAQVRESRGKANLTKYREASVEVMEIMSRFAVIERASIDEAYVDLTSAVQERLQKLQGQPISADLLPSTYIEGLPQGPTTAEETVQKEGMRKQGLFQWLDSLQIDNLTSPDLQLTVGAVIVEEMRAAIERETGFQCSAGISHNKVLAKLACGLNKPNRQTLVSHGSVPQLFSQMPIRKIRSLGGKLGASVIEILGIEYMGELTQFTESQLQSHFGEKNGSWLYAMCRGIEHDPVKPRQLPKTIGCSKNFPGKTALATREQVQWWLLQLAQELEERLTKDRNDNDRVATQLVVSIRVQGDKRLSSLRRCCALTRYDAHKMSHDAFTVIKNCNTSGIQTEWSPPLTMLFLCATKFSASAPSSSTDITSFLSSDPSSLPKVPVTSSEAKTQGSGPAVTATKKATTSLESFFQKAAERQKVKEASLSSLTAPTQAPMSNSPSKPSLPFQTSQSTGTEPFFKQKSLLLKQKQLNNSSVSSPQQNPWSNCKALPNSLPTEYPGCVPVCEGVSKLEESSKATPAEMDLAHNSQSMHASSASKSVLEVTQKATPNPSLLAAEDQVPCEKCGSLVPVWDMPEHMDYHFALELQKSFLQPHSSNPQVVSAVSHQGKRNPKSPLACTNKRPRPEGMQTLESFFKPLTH
# Biological target: T1, 2xFlag-Polη (DNA polymerase η, wild type) (human)
# Experiment: affinity purification with mass spectrometry; HEK293T transfected with 2xFlag-Polη; immunopurification from nuclear extracts; SDS-PAGE, silver staining, bands cut, LC-MS/MS
binder,measurement,value
"O-GlcNAc transferase (OGT), endogenous (enzyme, UniProt O15294 1-1046) MASSVGNVADSTEPTKRMLSFQGLAELAHREYQAGDFEAAERHCMQLWRQEPDNTGVLLLLSSIHFQCRRLDRSAHFSTLAIKQNPLLAEAYSNLGNVYKERGQLQEAIEHYRHALRLKPDFIDGYINLAAALVAAGDMEGAVQAYVSALQYNPDLYCVRSDLGNLLKALGRLEEAKACYLKAIETQPNFAVAWSNLGCVFNAQGEIWLAIHHFEKAVTLDPNFLDAYINLGNVLKEARIFDRAVAAYLRALSLSPNHAVVHGNLACVYYEQGLIDLAIDTYRRAIELQPHFPDAYCNLANALKEKGSVAEAEDCYNTALRLCPTHADSLNNLANIKREQGNIEEAVRLYRKALEVFPEFAAAHSNLASVLQQQGKLQEALMHYKEAIRISPTFADAYSNMGNTLKEMQDVQGALQCYTRAIQINPAFADAHSNLASIHKDSGNIPEAIASYRTALKLKPDFPDAYCNLAHCLQIVCDWTDYDERMKKLVSIVADQLEKNRLPSVHPHHSMLYPLSHGFRKAIAERHGNLCLDKINVLHKPPYEHPKDLKLSDGRLRVGYVSSDFGNHPTSHLMQSIPGMHNPDKFEVFCYALSPDDGTNFRVKVMAEANHFIDLSQIPCNGKAADRIHQDGIHILVNMNGYTKGARNELFALRPAPIQAMWLGYPGTSGALFMDYIITDQETSPAEVAEQYSEKLAYMPHTFFIGDHANMFPHLKKKAVIDFKSNGHIYDNRIVLNGIDLKAFLDSLPDVKIVKMKCPDGGDNADSSNTALNMPVIPMNTIAEAVIEMINRGQIQITINGFSISNGLATTQINNKAATGEEVPRTIIVTTRSQYGLPEDAIVYCNFNQLYKIDPSTLQMWANILKRVPNSVLWLLRFPAVGEPNIQQYAQNMGLPQNRIIFSPVAPKEEHVRRGQLADVCLDTPLCNGHTTGMDVLWAGTPMVTMPGETLASRVAASQLTCLGCLELIAKNRQEYEDIAVKLGTDLEYLKKVRGKVWKQRISSPLFNTKQYTMELERLYLQMWEHYAAGNKPDHMIKPVEVTESA",binding,binds

# These are yes or no findings as the source states them, for the method shown. Binding seen in cells or lysates may run through a third protein. These calls come from enrichment with a bait or labelling near it, and not all partners need be listed. Where a sequence is shown, tags or fusion partners need not be part of it.
